These are yes or no findings as the source states them, for the method shown. In cells and extracts the contact can be indirect. Some binding calls cover weakened binding; strength is not graded here. Tags and fused reporters may be left off the sequences shown.
Target: T1, 3xFLAG-SRSF7 (serine/arginine-rich splicing factor 7) (UniProt Q8BL97)
T1 sequence: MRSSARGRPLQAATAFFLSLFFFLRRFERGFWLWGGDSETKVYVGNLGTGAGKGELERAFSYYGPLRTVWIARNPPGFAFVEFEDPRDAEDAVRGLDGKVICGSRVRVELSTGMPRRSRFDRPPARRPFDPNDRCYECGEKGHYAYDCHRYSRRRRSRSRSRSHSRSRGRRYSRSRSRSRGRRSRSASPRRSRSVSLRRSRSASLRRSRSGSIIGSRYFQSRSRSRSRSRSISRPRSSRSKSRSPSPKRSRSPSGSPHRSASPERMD
Experiment: co-IP

B1: KMT5a (SET8), H4K20me1 histone methyltransferase (enzyme, UniProt Q2YDW7 1-349)
chain: MARGRKMCKPRAVEAAAAAVAATAPGPEMVEQRGPGRPRSDGENVFAGQSKIYAYMSPNKCSAMRSPLQEENSVAHHEVKCPGKPLAGIYRKREEKRNTGNVIRSAVKSDEQKSKDTRRGPLAPFPNQKSEAAEPPKTPPPSCDSTNVAVAKQALKKSLKGKQAPRKKSQGKTQQNRKLTDFYPVRRSSRKSKAELQSEERKKNELIESGKEEGMKIDLIDGKGRGVIATKQFSRGDFVVEYHGDLIEITDAKKREALYVQDPSTGCYMYYFQYLSKTYCVDATQETNRLGRLINHSKCGNCQTKLHDIDGVPHLILIASRDIAAGEELLYDYGDRSKASIEAYPWLKH
  binding: binds

Reference: article doi:10.1101/2023.05.09.540055
